{"source": "patent US9746480B2", "about": "“Human myeloid derived suppressor cell cancer markers” (University of Southern California, priority 2011, dated 2017)", "key": {"CD33^+ MDSC [1]": {"tested_on": "CD33^+ MDSC", "assay": "Reversal of suppressive function of tumor cell line-induced CD33+ MDSC by drugs", "type": "cell-based, human", "settings": "drug-treated CD33+ MDSC"}, "CD33^+ MDSC [2]": {"tested_on": "CD33^+ MDSC", "assay": "qRT-PCR gene expression in treated CD33+ MDSC", "type": "cell-based, human", "settings": "treated vs untreated CD33+ MDSC, mRNA"}, "CD11b^+ MDSC [3]": {"tested_on": "CD11b^+ MDSC", "assay": "qRT-PCR gene expression in treated CD11b+ MDSC", "type": "cell-based, human", "settings": "treated vs untreated CD11b+ MDSC, mRNA"}, "CD11b^+ MDSC [4]": {"tested_on": "CD11b^+ MDSC", "assay": "Functional inhibition of tumor cell line-induced CD11b+ MDSC by drugs", "settings": "drug-treated CD11b+ MDSC"}}, "note": "At least one structure is not confirmed: it was looked up by name or label, or the drawing left a doubt.", "data": [{"smiles": "CCN(CC)CCNC(=O)c1c(C)[nH]c(/C=C2\\C(=O)Nc3ccc(F)cc32)c1C", "note": "[Sunitinib]", "values": [{"measurement": "CD33+ MDSC suppressive function", "setting": "CD33^+ MDSC [1]", "result": "Inhibition"}, {"measurement": "CD33+ MDSC suppressive function", "setting": "CD33^+ MDSC [1]; listed as sunitinib", "result": "Reversal"}, {"measurement": "HIF1α expression", "setting": "CD33^+ MDSC [2]", "result": "decreased"}, {"measurement": "STAT3 expression", "setting": "CD33^+ MDSC [2]", "result": "decreased"}]}, {"smiles": "Cc1ccc(-c2cc(C(F)(F)F)nn2-c2ccc(S(N)(=O)=O)cc2)cc1", "note": "[Celecoxib]", "values": [{"measurement": "CD33+ MDSC suppressive function", "setting": "CD33^+ MDSC [1]", "result": "Inhibition"}, {"measurement": "CD33+ MDSC suppressive function", "setting": "CD33^+ MDSC [1]; listed as CXB", "result": "Reversal"}, {"measurement": "HIF1α expression", "setting": "CD33^+ MDSC [2]", "result": "decreased"}, {"measurement": "STAT3 expression", "setting": "CD33^+ MDSC [2]", "result": "decreased"}, {"measurement": "C/EBPβ expression", "setting": "CD11b^+ MDSC [3]", "result": "not observed to decrease"}, {"measurement": "CD11b+ MDSC suppressive function", "setting": "CD11b^+ MDSC [4]", "result": "not found to have inhibitory actions"}]}]}
